Results deposited as PubChem BioAssay AID743121 (NCATS, 2013)
Assay: 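Partners whose loss is lethal together with topoisomerase I blockade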 (primary screen). Cell system: MDA-MB-231 cells, a human breast cancer line. Reagents: single siRNA against human genes, 20 nM siRNA (0.8 pmol per well). Time to read-out: 120 h (drug added 48 h after transfection, read 72 h later). Treatment: camptothecin 20 nM (about EC30) for 72 h; vehicle 0.1% DMSO in parallel plates. Measurement: 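CellTiter-Glo ATP signal, scaled to control siRNA as percent viability; sensitisation given as log2 of untreated divided by camptothecin-treated viability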. Direction: log2 vehicle/camptothecin viability: higher = stronger sensitisation to camptothecin; viability with camptothecin and viability without drug: higher = more viable cells. Rule for the call: 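Active genes have an RSA gene-level p-value below 0.001, computed from the ratios of their separate siRNAs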.
Shown is an unselected part of about 26,000 deposited reagents. In the full data, 167 (0.63%) got an active call. 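Calls are per gene from RSA p-values that are not deposited; an individual active-marked siRNA can sensitise only weakly.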 The numbers tell different reagents against one gene apart. No sequences are given here.

gene symbol | reagent no. | log2 vehicle/camptothecin viability | viability with camptothecin (% of control) | viability without drug (% of control) | Outcome
CBR4 | 1 | -0.21 | 126 | 109 | inactive
CBR4 | 2 | -0.114 | 82.7 | 76.4 | inactive
CBR4 | 3 | 0.191 | 92.9 | 106 | inactive
CBR4 | 4 | 0.397 | 42.9 | 56.5 | inactive
KCNJ2 | 1 | -0.101 | 65.1 | 60.7 | inactive
KCNJ2 | 2 | 0.0582 | 99.8 | 104 | inactive
KCNJ2 | 3 | 0.0427 | 82.1 | 84.6 | inactive
KCNJ2 | 4 | 0.179 | 94.1 | 107 | inactive
PDGFA | 1 | -0.0528 | 97.8 | 94.3 | inactive
PDGFA | 2 | -0.213 | 102 | 87.9 | inactive
PDGFA | 3 | 0.527 | 22.9 | 33 | inactive
PDGFA | 4 | -0.163 | 73.5 | 65.6 | inactive
DLG1 | 1 | -0.041 | 92.7 | 90.1 | inactive
DLG1 | 2 | -0.0724 | 43.1 | 41 | inactive
DLG1 | 3 | -0.417 | 83.8 | 62.8 | inactive
DLG1 | 4 | -0.191 | 110 | 96.5 | inactive
DLG1 | 5 | 0.626 | 57.9 | 89.3 | inactive
DLG1 | 6 | -0.485 | 66.1 | 47.2 | inactive

In a second layout: 4 of the entries above.
{"gene symbol":"PDGFA","reagent no.":1,"log2 vehicle/camptothecin viability":-0.0528,"viability with camptothecin (% of control)":97.8,"viability without drug (% of control)":94.3,"Outcome":"inactive"}
{"gene symbol":"PDGFA","reagent no.":2,"log2 vehicle/camptothecin viability":-0.213,"viability with camptothecin (% of control)":102,"viability without drug (% of control)":87.9,"Outcome":"inactive"}
{"gene symbol":"PDGFA","reagent no.":3,"log2 vehicle/camptothecin viability":0.527,"viability with camptothecin (% of control)":22.9,"viability without drug (% of control)":33,"Outcome":"inactive"}
{"gene symbol":"PDGFA","reagent no.":4,"log2 vehicle/camptothecin viability":-0.163,"viability with camptothecin (% of control)":73.5,"viability without drug (% of control)":65.6,"Outcome":"inactive"}

More records follow:
gene symbol | reagent no. | log2 vehicle/camptothecin viability | viability with camptothecin (% of control) | viability without drug (% of control) | Outcome
HDAC11 | 1 | -0.0472 | 95.7 | 92.6 | inactive
HDAC11 | 2 | -0.479 | 103 | 73.8 | inactive
HDAC11 | 3 | -0.0791 | 86.7 | 82.1 | inactive
HDAC11 | 4 | 0.435 | 13 | 17.5 | inactive
FBP1 | 1 | -0.586 | 105 | 69.8 | inactive
FBP1 | 2 | -0.0779 | 50.9 | 48.2 | inactive
FBP1 | 3 | -0.319 | 70.8 | 56.8 | inactive
FBP1 | 4 | 0.179 | 68.2 | 77.2 | inactive
OR2W1 | 1 | -0.746 | 60.8 | 36.2 | inactive
OR2W1 | 2 | 0.95 | 29.8 | 57.6 | inactive
OR2W1 | 3 | -0.148 | 89.3 | 80.6 | inactive
OR2W1 | 4 | -0.333 | 78.5 | 62.3 | inactive
